# Percent effect of library compounds

Source: ChEMBL document CHEMBL3988442, “University of Dundee, Small-Polar-MMV Screening Library” (2021).

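Phenotypic screen: M. tuberculosis growth, glucose 7H9 medium, 3 days; the read-out is not stated. Concentration: 500 µM. Direction is inferred from retests: higher values go with more growth inhibition. Size under these conditions: about 18,000 compounds, about 1,400 of them at 50% or above in at least one test.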

Results are given as percent effect. The record does not define 0% and 100%; most values in the screen are far below 50% and negative numbers occur (in some assays of this library far below -100). Compounds were drawn at random from those tested, without regard to their results.

{"smiles": "COc1ccccc1NC(=O)NC(C)C", "Percent Effect": -11.33}
{"smiles": "CCN1CCN(CC(=O)Nc2ccccc2)CC1", "Percent Effect": 4.264}
{"smiles": "c1cncc(CNCCc2nnc3ccccn23)c1", "Percent Effect": -15.24}
{"smiles": "NC(=O)CC1C(=O)NCCN1CCCc1ccccc1", "stereo": "stereo not shown", "Percent Effect": 17.25}
{"smiles": "Cc1ncsc1CNC(=O)N[C@H](CO)c1ccccc1", "Percent Effect": 13.7}
{"smiles": "CN1CCC[C@@H]1CN1CCN(C(=O)c2ccc[nH]2)CC1", "Percent Effect": 5.583}
{"smiles": "CCOCC1CCN(C(=O)c2ccc(F)c(O)c2)CC1", "Percent Effect": 40.41}
{"smiles": "CC1=NOC(C(=O)NCCc2nc3c(s2)CCCC3)C1", "stereo": "stereo not shown", "Percent Effect": 54.66}
{"smiles": "CCOc1cc(NCc2ncc(C)o2)ncn1", "Percent Effect": 59.04}
{"smiles": "C1CN=C(NCCCOCC2CCCO2)NC1", "stereo": "stereo not shown", "Percent Effect": 7.303}
{"smiles": "O=S(=O)(CC(O)CO)C1Cc2ccccc2C1", "stereo": "stereo not shown", "Percent Effect": 4.172}
{"smiles": "CN(CC(N)=O)CC(=O)NCc1cc(Br)cs1", "Percent Effect": 33.72}
{"smiles": "Cc1nnc(SCC(=O)N2CC[C@](C)(O)[C@@H](O)C2)o1", "Percent Effect": -1.035}
{"smiles": "OCCOc1ccc(NCc2ccsc2)cn1", "Percent Effect": -9.413}
{"smiles": "CC(C)(C#N)C(=O)Nc1ccc2c(c1)NC(=O)CO2", "Percent Effect": 12.18}
{"smiles": "CC(=O)Nc1nc(COc2ccc(C)cn2)cs1", "Percent Effect": 82.95}
{"smiles": "CN(CC(=O)NCCC#N)Cc1ccccc1Cl", "Percent Effect": 13.94}
{"smiles": "Cn1nc(CC2CC2)cc1N", "Percent Effect": 7.883}
{"smiles": "COc1ccc(C2CNCCO2)cc1", "stereo": "stereo not shown", "Percent Effect": 17.16}
{"smiles": "CC(=O)c1ccc(C(=O)NC(C)c2n[nH]c(=O)[nH]2)s1", "stereo": "stereo not shown", "Percent Effect": 6.979}
{"smiles": "NCCC1CN(Cc2cc3ccccc3s2)CCO1", "stereo": "stereo not shown", "Percent Effect": 73.14}
{"smiles": "CC1(C)CN(c2ccnc3ccccc23)CC[S+]1[O-]", "stereo": "stereo not shown", "Percent Effect": 8.267}
{"smiles": "CS(=O)(=O)N1CCN(C(=O)c2ccccc2)C1", "Percent Effect": 13.54}
{"smiles": "CS(=O)(=O)NC1(CN)CCCCC1", "Percent Effect": 6.218}
{"smiles": "Nc1cc(-c2cccnc2)on1", "Percent Effect": 88.65}
{"smiles": "Cn1ccnc(Sc2nnnn2CC2CCCO2)c1=O", "stereo": "stereo not shown", "Percent Effect": 14.99}
{"smiles": "COC(=O)C1CCCN(C(=O)Nc2ccccc2)C1", "stereo": "stereo not shown", "Percent Effect": 46.25}
{"smiles": "CC(CC#N)N(C)C(=O)c1ccc(N2CCCC2)nc1", "stereo": "stereo not shown", "Percent Effect": -3.301}
{"smiles": "CCN1CCN(C2CCCC2)C(CCO)C1", "stereo": "stereo not shown", "Percent Effect": -2.289}
{"smiles": "CC1CCCCN1S(=O)(=O)N1CCN(C)CC1", "stereo": "stereo not shown", "Percent Effect": 10.38}
{"smiles": "CCCNCc1ccc2c(c1)n(C)c(=O)n2C", "Percent Effect": -1.689}

Repeated from the top, 3 entries:

| SMILES | Percent Effect |
|---|---|
| `COc1ccccc1NC(=O)NC(C)C` | -11.33% |
| `CCN1CCN(CC(=O)Nc2ccccc2)CC1` | 4.264% |
| `c1cncc(CNCCc2nnc3ccccn23)c1` | -15.24% |